Data published in patent publication US12378320B2, “Methods for treating pancreatitis” (Cold Spring Harbor Laboratory, priority 2018, dated 2025).

B1: Q9QZE5 (protein, UniProt Q9QZE5 1-874, looked up)
chain: MLKKFDKKDEESGGGSNPLQHLEKSAVLQEARVFNETPINPRKCAHILTKILYLINQGEHLGTTEATEAFFAMTKLFQSNDPTLRRMCYLTIKEMSCIAEDVIIVTSSLTKDMTGKEDNYRGPAVRALCQITDSTMLQAVERYMKQAIVDKVPSVSSSALVSSLHLLKCSFDVVKRWVNEAQEAASSDNIMVQYHALGLLYHVRKNDRLAVSKMISKFTRHGLKSPFAYCMMIRVASKQLEEEDGSRDSPLFDFIESCLRNKHEMVVYEAASAIVNLPGCSAKELAPAVSVLQLFCSSPKAALRYAAVRTLNKVAMKHPSAVTACNLDLENLVTDSNRSIATLAITTLLKTGSESSIDRLMKQISSFMSEISDEFKVVVVQAISALCQKYPRKHAVLMNFLFTMLREEGGFEYKRAIVDCIISIIEENSESKETGLSHLCEFIEDCEFTVLATRILHLLGQEGPKTNNPSKYIRFIYNRVVLEHEEVRAGAVSALAKFGAQNEEMLPSILVLLKRCVMDDDNEVRDRATFYLNVLEQKQKALNAGYILNGLTVSIPGLEKALQQYTLEPSEKPFDLKSVPLATTPMAEQRPESTATAAVKQPEKVAATRQEIFQEQLAAVPEFQGLGPLFKSSPEPVALTESETEYVIRCTKHTFSDHLVFQFDCTNTLNDQTLENVTVQMEPTEAYEVLSYVPARSLPYNQPGTCYTLVALPTEDPTAVACTFSCVMKFTVKDCDPNTGEIDEEGYEDEYVLEDLEVTVADHIQKVMKVNFEAAWDEVGDEFEKEETFTLSTIKTLEEAVGNIVKFLGMHPCERSDKVPENKNTHTLLLAGVFRGGHDILVRSRLLLLDTVTMQVTARSSEELPVDIILASVG
modifications: full-length
B2: Q9JKR6 (protein, UniProt Q9JKR6 1-999, looked up)
chain: MAATVRRQRPRRLLCWALVAVLLADLLALSDTLAVMSVDLGSESMKVAIVKPGVPMEIVLNKESRRKTPVTVTLKENERFLGDSAAGMAIKNPKATLRYFQHLLGKQADNPHVALYRSRFPEHELIVDPQRQTVRFQISPQLQFSPEEVLGMVLNYSRSLAEDFAEQPIKDAVITVPAFFNQAERRAVLQAARMAGLKVLQLINDNTATALSYGVFRRKDINSTAQNVMFYDMGSGSTVCTIVTYQTVKTKEAGMQPQLQIRGVGFDRTLGGLEMELRLREHLAKLFNEQRKGQKAKDVRENPRAMAKLLREANRLKTVLSANADHMAQIEGLMDDVDFKAKVTRVEFEELCADLFDRVPGPVQQALQSAEMSLDQIEQVILVGGATRVPKVQEVLLKAVGKEELGKNINADEAAAMGAVYQAAALSKAFKVKPFVVRDAVIYPILVEFTREVEEEPGLRSLKHNKRVLFSRMGPYPQRKVITFNRYSHDFNFHINYGDLGFLGPEDLRVFGSQNLTTVKLKGVGESFKKYPDYESKGIKAHFNLDESGVLSLDRVESVFETLVEDSPEEESTLTKLGNTISSLFGGGTSSDAKENGTDAVQEEEESPAEGSKDEPAEQGELKEEAEPPAEETSQPPPSEPKGDAAREGEKPDEKESGDKPEAQKPNEKGQAGPEGAAPAPEEDKKPKPARKQKMVEEIGVELAVLDLPDLPEDELARSVQKLEELTLRDLEKQEREKAANSLEAFIFETQDKLYQPEYQEVSTEEQREEISGKLSATSTWLEDEGFGATTVMLKDKLAELRKLCQGLFFRVEERRKWPERLSALDNLLNHSSIFLKGARLIPEMDQVFTEVEMTTLEKVINDTWAWKNATLAEQAKLPATEKPVLLSKDIEAKMMALDREVQYLLNKAKFTKPRPRPKDKNGTRAEPPLNASAGDQEEKVIPPAGQTEEAKPILEPDKEETGTEPADSEPLELGGPGAGPEQEEQSAGQKRPSKNDEL
modifications: full-length
B3: Q61646 (protein, UniProt Q61646 1-347, looked up)
chain: MRALGAVVTLLLWGQLFAVELGNDAMDFEDDSCPKPPEIANGYVEHLVRYRCRQFYRLRAEGDGVYTLNDEKQWVNTVAGEKLPECEAVCGKPKHPVDQVQRIIGGSMDAKGSFPWQAKMISRHGLTTGATLISDQWLLTTAKNLFLNHSETASAKDITPTLTLYVGKNQLVEIEKVVLHPNHSVVDIGLIKLKQRVLVTERVMPICLPSKDYIAPGRVGYVSGWGRNANFRFTDRLKYVMLPVADQDKCVVHYENSTVPEKKNLTSPVGVQPILNEHTFCAGLTKYQEDTCYGDAGSAFAIHDMEEDTWYAAGILSFDKSCAVAEYGVYVRATDLKDWVQETMAKN
modifications: full-length
B4: P53994 (protein, UniProt P53994 1-212, looked up)
chain: MAYAYLFKYIIIGDTGVGKSCLLLQFTDKRFQPVHDLTIGVEFGARMITIDGKQIKLQIWDTAGQESFRSITRSYYRGAAGALLVYDITRRDTFNHLTTWLEDARQHSNSNMVIMLIGNKSDLESRREVKKEEGEAFAREHGLIFMETSAKTASNVEEAFINTAKEIYEKIQEGVFDINNEANGIKIGPQHAATNASHGSNQGGQQAGGGCC
modifications: full-length
B5: Q8QZY1 (protein, UniProt Q8QZY1 1-564, looked up)
chain: MSYPADDYESEAAYDPYAYPGDYDMHTGDPKQDLAYERQYEQQTYQVIPEVIKNFIQYFHKTVSDLIDQKVYELQASRVSSDVIDQKVYEIQDIYENSWTKLTERFFKNTPWPEAEAIAPQVGNDAVFLILYKELYYRHIYAKVSGGPSLEQRFESYYNYCNLFNYILNADGPAPLELPNQWLWDIIDEFIYQFQSFSQYRCKTAKKSEGEMDFLRSNPKVWNVHSVLNVLHSLVDKSNINRQLEVYTSGGDPESVAGEYGRHSLYKMLGYFSLVGLLRLHSLLGDYYQAIKVLENIELNKKSMYSRVPECQVTTYYYVGFAYLMMRRYQDAIRVFANILLYIQRTKSMFQRTTYKYEMINKQNEQMHALLAIALTMYPMRIDESIHLQLREKYGDKMLRMQKGDPQVYEELFSYACPKFLSPVVPNYDNVHPNYHKEPFLQQLKVFSDEVQQQAQLSTIRSFLKLYTTMPVAKLAGFLDLTEQEFRIQLLVFKHKMKNLVWTSGISALDGEFQSASEVDFYIDKDMIHIADTKVARRYGDFFIRQIHKFEELNRTLKKMGQRP
modifications: full-length
B6: P17751 (protein, UniProt P17751 1-249, looked up)
chain: MAPTRKFFVGGNWKMNGRKKCLGELICTLNAANVPAGTEVVCAPPTAYIDFARQKLDPKIAVAAQNCYKVTNGAFTGEISPGMIKDLGATWVVLGHSERRHVFGESDELIGQKVSHALAEGLGVIACIGEKLDEREAGITEKVVFEQTKVIADNVKDWSKVVLAYEPVWAIGTGKTATPQQAQEVHEKLRGWLKSNVNDGVAQSTRIIYGGSVTGATCKELASQPDVDGFLVGGASLKPEFVDIINAKQ
modifications: full-length
B7: P08113 (protein, UniProt P08113 1-802, looked up)
chain: MRVLWVLGLCCVLLTFGFVRADDEVDVDGTVEEDLGKSREGSRTDDEVVQREEEAIQLDGLNASQIRELREKSEKFAFQAEVNRMMKLIINSLYKNKEIFLRELISNASDALDKIRLISLTDENALAGNEELTVKIKCDKEKNLLHVTDTGVGMTREELVKNLGTIAKSGTSEFLNKMTEAQEDGQSTSELIGQFGVGFYSAFLVADKVIVTSKHNNDTQHIWESDSNEFSVIADPRGNTLGRGTTITLVLKEEASDYLELDTIKNLVRKYSQFINFPIYVWSSKTETVEEPLEEDEAAKEEKEESDDEAAVEEEEEEKKPKTKKVEKTVWDWELMNDIKPIWQRPSKEVEEDEYKAFYKSFSKESDDPMAYIHFTAEGEVTFKSILFVPTSAPRGLFDEYGSKKSDYIKLYVRRVFITDDFHDMMPKYLNFVKGVVDSDDLPLNVSRETLQQHKLLKVIRKKLVRKTLDMIKKIADEKYNDTFWKEFGTNIKLGVIEDHSNRTRLAKLLRFQSSHHSTDITSLDQYVERMKEKQDKIYFMAGSSRKEAESSPFVERLLKKGYEVIYLTEPVDEYCIQALPEFDGKRFQNVAKEGVKFDESEKTKESREATEKEFEPLLNWMKDKALKDKIEKAVVSQRLTESPCALVASQYGWSGNMERIMKAQAYQTGKDISTNYYASQKKTFEINPRHPLIRDMLRRIKEDEDDKTVMDLAVVLFETATLRSGYLLPDTKAYGDRIERMLRLSLNIDPEAQVEEEPEEEPEDTSEDAEDSEQDEGEEMDAGTEEEEEETEKESTEKDEL
modifications: full-length

test system: CA19-9 modified proteins; assay: CA19-9 IP/MS (iTRAQ) of organoid conditioned media after Dox treatment; set-up: species or system mouse; settings: A217 organoid conditioned media, 0H, 5B1

| Molecule | 17 0H 5B1 (CA19-9 IP/MS relative abundance) |
| --- | --- |
| B1 | 1.108 |
| B2 | 2.282 |
| B3 | 0.356 |
| B4 | 0.562 |
| B5 | 3.805 |
| B6 | 1.87 |

same assay, conditions: A217 organoid conditioned media, 0H, NS19-9; every printed value in this column is 1

| Molecule | 17 0H NS19 (CA19-9 IP/MS relative abundance) |
| --- | --- |
| B1 | 1 |
| B2 | 1 |
| B3 | 1 |
| B4 | 1 |
| B5 | 1 |
| B6 | 1 |

same assay, conditions: A217 organoid conditioned media, 8 hours, 5B1

| Molecule | 17 8H 5B1 (CA19-9 IP/MS relative abundance) |
| --- | --- |
| B1 | 1.278 |
| B2 | 2.379 |
| B3 | 0.181 |
| B4 | 0.541 |
| B5 | 3.518 |
| B6 | 1.45 |

same assay, conditions: A217 organoid conditioned media, 8 hours, NS19-9

| Molecule | 17 8H NS19 (CA19-9 IP/MS relative abundance) |
| --- | --- |
| B1 | 0.139 |
| B2 | 0.486 |
| B3 | 1.119 |
| B4 | 0.459 |
| B5 | 0.853 |
| B6 | 0.734 |

same assay, conditions: A220 organoid conditioned media, 0H, 5B1

| Molecule | 20 0H 5B1 (CA19-9 IP/MS relative abundance) |
| --- | --- |
| B1 | 1.15 |
| B2 | 3.009 |
| B3 | 0.214 |
| B4 | 0.584 |
| B5 | 2.789 |
| B6 | 1.528 |

same assay, conditions: A220 organoid conditioned media, 0H, NS19-9

| Molecule | 20 0H NS19 (CA19-9 IP/MS relative abundance) |
| --- | --- |
| B1 | 0.14 |
| B2 | 0.728 |
| B3 | 1.098 |
| B4 | 1.278 |
| B5 | 0.79 |
| B6 | 0.73 |

same assay, conditions: A220 organoid conditioned media, 8 hours, 5B1

| Molecule | 20 8H 5B1 (CA19-9 IP/MS relative abundance) |
| --- | --- |
| B1 | 1.413 |
| B2 | 2.585 |
| B3 | 0.467 |
| B4 | 0.527 |
| B5 | 3.222 |
| B6 | 1.534 |

same assay, conditions: A220 organoid conditioned media, 8 hours, NS19-9

| Molecule | 20 8H NS19 (CA19-9 IP/MS relative abundance) |
| --- | --- |
| B1 | 0.121 |
| B2 | 0.521 |
| B3 | 0.849 |
| B4 | 0.775 |
| B5 | 1.255 |
| B6 | 0.882 |

same assay, conditions: CA19-9 IP/MS relative abundance; A217 (genetic negative) organoid conditioned media, 0H (before treatment), IP with NS19-9; reference channel = 1

| Molecule | 17 0H NS19 |
| --- | --- |
| B7 | 1 |

same assay, conditions: CA19-9 IP/MS relative abundance; A217 (genetic negative) organoid conditioned media, after 8 hours, IP with 5B1

| Molecule | 17 8H 5B1 |
| --- | --- |
| B7 | 3.435 |

same assay, conditions: CA19-9 IP/MS relative abundance; A217 (genetic negative) organoid conditioned media, after 8 hours, IP with NS19-9

| Molecule | 17 8H NS19 |
| --- | --- |
| B7 | 0.927 |

same assay, conditions: CA19-9 IP/MS relative abundance; A220 (C;R^LSL;F) organoid conditioned media, 0H (before treatment), IP with 5B1

| Molecule | 20 0H 5B1 |
| --- | --- |
| B7 | 2.739 |
